For one experiment, the target named is human CD73 (Homo sapiens, UniProt P21589). The experiment is described as follows: Inhibitor activity against CD73 in cell based assay (CD73 expressing CHO-K1 cells). Particulars: read-out: CHO-K1 CELL_VARIANT: CD73 IC50; CHO-K1 cells expressing human CD73, 150 μM AMP, 4 hours of incubation. How it is done:
Determine Inhibitor Activity Against CD73 in Cell Based Assay
CD73 expressing CHO-K1 cell clones were generated upon stable transfection of a plasmid expressing human CD73 under the control of CMV promoter. Cells were selected in Ham's F-12K (Kaighn's) media supplemented with 10% fetal bovine serum and 1 mg/ml G418 at 37° C. in a humidified incubator supplied with 5% CO2. The assays were performed as follows. Cells were seeded in a 96 well plate in 50 μL of culture media at a density of 1×10^4 per well. Compound at a maximal concentration of 5 mM was serially diluted 1:3 in DMSO for a total of 8 point titration. A 2 μL aliquot of each dilution point was added to […] culture media and 25 µL was added to each well, providing 10 μM compound at the maximum concentration point. AMP was diluted in culture media and 25 μL was added to each well with a final concentration of 150 μM. […] AMP level in supernatant was measured indirectly by adding 5 μL of CellTiter-Glo® 2.0 reagent and 5 μL of ATP with a final concentration of 1 μM. Following incubation of plate at room temperature for 30 minutes, luminescent signal was read on a Tecan plate reader. The percentage inhibition at individual concentrations relative to high and low controls was calculated. The data were analyzed by using nonlinear regression to generate ICso values.

Protein sequences, listed by entry. Tags and fused reporters are not part of them. Residues count along the entry.
UniProt P21589, 27-549 limits assumed: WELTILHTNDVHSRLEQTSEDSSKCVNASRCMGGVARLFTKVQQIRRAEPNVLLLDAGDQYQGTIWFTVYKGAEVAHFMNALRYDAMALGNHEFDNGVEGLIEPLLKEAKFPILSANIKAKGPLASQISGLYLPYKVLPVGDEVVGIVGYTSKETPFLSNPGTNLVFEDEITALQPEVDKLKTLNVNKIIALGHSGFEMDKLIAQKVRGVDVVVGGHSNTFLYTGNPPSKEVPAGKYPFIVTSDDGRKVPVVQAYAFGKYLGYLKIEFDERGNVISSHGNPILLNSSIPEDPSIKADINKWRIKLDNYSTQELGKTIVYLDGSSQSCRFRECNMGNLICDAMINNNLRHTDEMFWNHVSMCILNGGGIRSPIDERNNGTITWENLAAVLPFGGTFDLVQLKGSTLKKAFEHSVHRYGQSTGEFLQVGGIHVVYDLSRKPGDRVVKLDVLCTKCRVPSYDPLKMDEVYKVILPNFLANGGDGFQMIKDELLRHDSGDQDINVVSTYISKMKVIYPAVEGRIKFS

In experiment [1] the target is Human CD73 (amino acid residues 27-549) (Homo sapiens, UniProt P21589). As to the kind of experiment: CD73 enzymatic assay (luciferase-based indirect assay, CellTiter-Glo). Conditions: read-out: CD73 IC50; 0.4 nM CD73, 150 μM AMP, 1 hour at room temperature. The protocol: CD73 enzymatic activity was measured in a luciferase-based indirect assay using CellTiter-Glo® system from Promega. The luciferase reaction in the presence of ATP is inhibited by AMP, a primary substrate of CD73. Addition of CD73 enzyme to the reaction converts AMP to adenosine, and release the inhibition, producing a luminescent signal. Inhibition of CD73 leads to the decrease of this luminescent signal.
Human CD73 (amino acid residues 27-549) with N-Terminal His tag was purified in E. coli. All the assay components were prepared in 50 mM HEPEs buffer (pH 7.4) with 0.01% Tween-20. The CD73 enzymatic assay was performed using 0.4 nM CD73 and 150 μM AMP. 9.5 μL of CD73 protein and 9.5 μL of AMP were added to the wells of a 384 well plate containing lpL of various concentrations of test compound or DMSO vehicle and incubated for 1 hour at room temperature. 16 wells containing CD73, AMP and 5% DMSO served as high control. […] Enzymatic reaction was stopped and AMP level was measured indirectly by adding 5 μL of CellTiter-Glo® 2.0 reagent and 5 μL of ATP with a final concentration of 1 μM. Following incubation of the plate at room temperature for 30 minutes, luminescent signal was read on a Tecan plate reader. The percentage inhibition at individual concentrations relative to high and low controls was calculated. The data were analyzed by using nonlinear regression to generate IC50 values.

Each structure is given as a SMILES string. Structures were worked out from names or drawings and are uncertain.

In the case of `Cc1nn(CC23CC(C#N)(C2)C3)c(C)c1-c1ccnc(O[C@@H]2CCN(c3cn[nH]c(=O)c3Cl)C2)c1`, the IC50 (at human CD73; in experiment [1]) was 0.001 to 10 µM throughout.

The record behind these values is patent publication US12202818B2, “Compounds and methods for CD73 modulation and indications therefor” (Opna Bio SA, priority 2020, dated 2025).
